# Results: publication PMC10333326
# The chains behind the UniProt entries cited, without tags or fusion partners.
# UniProt O94916: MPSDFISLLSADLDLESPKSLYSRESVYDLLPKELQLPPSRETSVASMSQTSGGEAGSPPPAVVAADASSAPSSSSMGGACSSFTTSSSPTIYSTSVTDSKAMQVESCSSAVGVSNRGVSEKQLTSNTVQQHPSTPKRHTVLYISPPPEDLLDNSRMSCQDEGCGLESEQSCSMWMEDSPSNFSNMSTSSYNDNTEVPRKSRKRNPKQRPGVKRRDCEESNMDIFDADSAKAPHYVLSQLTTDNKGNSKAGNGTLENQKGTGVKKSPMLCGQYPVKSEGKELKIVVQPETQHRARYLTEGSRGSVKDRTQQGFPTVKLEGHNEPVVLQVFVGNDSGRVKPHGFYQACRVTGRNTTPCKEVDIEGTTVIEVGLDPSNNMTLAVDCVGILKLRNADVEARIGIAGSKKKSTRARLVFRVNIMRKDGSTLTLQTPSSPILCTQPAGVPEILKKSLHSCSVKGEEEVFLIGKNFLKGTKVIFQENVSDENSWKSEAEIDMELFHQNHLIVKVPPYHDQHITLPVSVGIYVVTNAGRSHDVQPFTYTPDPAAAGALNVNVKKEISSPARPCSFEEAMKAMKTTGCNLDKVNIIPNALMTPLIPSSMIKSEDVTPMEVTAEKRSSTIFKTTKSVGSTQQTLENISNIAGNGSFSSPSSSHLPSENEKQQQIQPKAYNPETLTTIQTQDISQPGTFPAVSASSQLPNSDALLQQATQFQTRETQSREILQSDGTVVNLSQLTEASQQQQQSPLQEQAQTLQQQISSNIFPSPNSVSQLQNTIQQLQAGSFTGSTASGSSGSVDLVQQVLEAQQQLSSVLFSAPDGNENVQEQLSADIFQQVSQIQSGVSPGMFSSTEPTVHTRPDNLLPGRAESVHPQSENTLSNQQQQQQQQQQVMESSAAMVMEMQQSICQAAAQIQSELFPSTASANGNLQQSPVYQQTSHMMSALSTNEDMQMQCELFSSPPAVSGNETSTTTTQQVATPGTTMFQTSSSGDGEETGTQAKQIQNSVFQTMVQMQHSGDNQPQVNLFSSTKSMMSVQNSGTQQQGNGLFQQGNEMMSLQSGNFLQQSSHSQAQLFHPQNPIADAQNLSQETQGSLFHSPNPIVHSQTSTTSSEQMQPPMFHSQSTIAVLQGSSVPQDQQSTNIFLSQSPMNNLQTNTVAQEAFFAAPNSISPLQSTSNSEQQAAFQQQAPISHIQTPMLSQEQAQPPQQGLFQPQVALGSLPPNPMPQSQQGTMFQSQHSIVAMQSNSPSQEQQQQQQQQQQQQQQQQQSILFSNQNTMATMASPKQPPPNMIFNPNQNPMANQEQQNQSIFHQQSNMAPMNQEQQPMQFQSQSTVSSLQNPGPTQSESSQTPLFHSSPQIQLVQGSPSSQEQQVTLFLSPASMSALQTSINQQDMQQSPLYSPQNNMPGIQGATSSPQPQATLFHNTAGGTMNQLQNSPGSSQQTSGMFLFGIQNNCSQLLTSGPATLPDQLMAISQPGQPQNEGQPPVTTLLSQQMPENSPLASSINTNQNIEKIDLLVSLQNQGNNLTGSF
# UniProt Q9Y4K3: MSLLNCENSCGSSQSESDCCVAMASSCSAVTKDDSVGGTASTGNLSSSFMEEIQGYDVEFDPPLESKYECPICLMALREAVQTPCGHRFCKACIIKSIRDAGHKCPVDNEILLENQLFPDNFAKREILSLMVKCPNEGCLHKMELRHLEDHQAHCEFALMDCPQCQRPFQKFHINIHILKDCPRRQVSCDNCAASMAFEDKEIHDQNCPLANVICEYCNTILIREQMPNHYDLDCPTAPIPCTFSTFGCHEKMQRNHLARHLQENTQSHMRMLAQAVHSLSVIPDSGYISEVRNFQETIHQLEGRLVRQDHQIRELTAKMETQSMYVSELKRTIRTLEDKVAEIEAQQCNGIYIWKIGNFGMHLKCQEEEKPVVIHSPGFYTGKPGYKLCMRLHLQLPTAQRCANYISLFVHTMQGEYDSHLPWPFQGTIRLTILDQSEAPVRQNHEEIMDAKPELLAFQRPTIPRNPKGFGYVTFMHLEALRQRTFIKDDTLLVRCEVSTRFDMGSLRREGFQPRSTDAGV
# Molecular target: Flag-tagged NFAT5 wild-type (human) (UniProt O94916)
# Assay: affinity purification with mass spectrometry; lysate in NETN buffer (50 mM Tris, 0.2 mM EDTA, 1% Triton X-100, 150 mM NaCl) on anti-FLAG M2 affinity gel 3 h at 4 °C, eluted with flag-peptides, silver-stained bands analysed by LC-MS/MS
substance,measurement,value
"E3 ligase TRAF6, endogenous (from UniProt Q9Y4K3 1-522) (enzyme)",binding,binds

# Results are given in words; binding and its absence hold for the method and conditions named. Binding seen in cells or lysates may run through a third protein. Here binding means that the protein was enriched with, or labelled near, the bait; the list need not be complete.
